Earlier results in patent US4581359A, “Pharmacological treatments with N-7-substituted derivatives of theophylline” (priority 1984, dated 1986).
Like-named read-outs stand apart in the source and are kept apart here. At least one structure is not confirmed: it was looked up by name or label, or the drawing left a doubt.

Key:
human bronchial muscles = conditions: cited from earlier work
[1] = cited from earlier work
[2] = tested on: mediator-induced broncoconstriction; conditions: based on effective plasma drug concentrations; cited from earlier work

For `Cn1c(=O)c2c(ncn2CC(O)CO)n(C)c1=O` (stereo not shown) [dyphylline, dihydroxypropyl theophylline], the “activity relative to theophylline” value (human bronchial muscles; Svedmyr et al.) is listed as 1/9, the “in vitro potency relative to theophylline” value (human bronchial muscles; Svedmyr) is listed as “ten times weaker than theophylline” and the “plasma concentration with some limited beneficial effect on bronchoconstriction” value ([1]; Furukawa et al.) is listed as 15 µg/mL. The “plasma concentration, minimally effective” value ([1]; Hudson et al.) was 16.3 µg/mL, the “plasma concentration, not effective” value ([1]; Hudson et al.) was 9.3 µg/mL and the “plasma concentration, effective” value ([1]; Simons et al.) was 12.3 µg/mL. For the same compound, the “plasma concentration, not effective” value ([1]; Simons et al.) was 7.19 µg/mL, the “dose required to equal the therapeutic response of 500 mg of aminophylline” value ([1]; estimated, Poyner) was “at least 2000 mg” and the “minimum effective concentration in plasma” value ([1]; humans, few reports) was 12 to 16 µg/mL. For the same compound, the “activity relative to theophylline” value [2] was “about 0.09 times theophylline”.
